Like-named read-outs stand apart in the source and are kept apart here.
How the values were obtained:
hPMAT = biological target: T1, hPMAT (Homo sapiens, UniProt Q7RTT9); assay: [3H]MPP+ uptake inhibition assay, HEK293 cells stably expressing hPMAT; format: cell-based
T1 construct: expressed in transfected cells
T1 sequence (Q7RTT9 1-530): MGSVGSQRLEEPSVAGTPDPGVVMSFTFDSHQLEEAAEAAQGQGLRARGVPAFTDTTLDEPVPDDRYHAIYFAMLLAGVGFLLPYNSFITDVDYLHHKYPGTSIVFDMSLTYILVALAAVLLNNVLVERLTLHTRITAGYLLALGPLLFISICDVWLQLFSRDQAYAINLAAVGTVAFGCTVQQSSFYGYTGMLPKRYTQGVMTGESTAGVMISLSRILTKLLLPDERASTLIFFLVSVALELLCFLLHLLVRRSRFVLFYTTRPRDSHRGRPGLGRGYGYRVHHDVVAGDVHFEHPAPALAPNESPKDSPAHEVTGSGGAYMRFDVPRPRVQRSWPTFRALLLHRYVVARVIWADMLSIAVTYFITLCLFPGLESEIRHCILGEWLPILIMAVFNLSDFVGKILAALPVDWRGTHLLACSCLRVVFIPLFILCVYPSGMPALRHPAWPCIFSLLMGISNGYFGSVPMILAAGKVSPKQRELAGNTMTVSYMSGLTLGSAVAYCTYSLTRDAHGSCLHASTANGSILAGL

hOCT3 [1] = biological target: T2, hOCT3 (Homo sapiens, UniProt O75751); settings: read-out: IC50 at hOCT3 reported by a previous study; fluorescent ASP+ as tracer; Massmann and colleagues; cited from earlier work
T2 construct: expressed in transfected cells
T2 sequence (O75751 1-556): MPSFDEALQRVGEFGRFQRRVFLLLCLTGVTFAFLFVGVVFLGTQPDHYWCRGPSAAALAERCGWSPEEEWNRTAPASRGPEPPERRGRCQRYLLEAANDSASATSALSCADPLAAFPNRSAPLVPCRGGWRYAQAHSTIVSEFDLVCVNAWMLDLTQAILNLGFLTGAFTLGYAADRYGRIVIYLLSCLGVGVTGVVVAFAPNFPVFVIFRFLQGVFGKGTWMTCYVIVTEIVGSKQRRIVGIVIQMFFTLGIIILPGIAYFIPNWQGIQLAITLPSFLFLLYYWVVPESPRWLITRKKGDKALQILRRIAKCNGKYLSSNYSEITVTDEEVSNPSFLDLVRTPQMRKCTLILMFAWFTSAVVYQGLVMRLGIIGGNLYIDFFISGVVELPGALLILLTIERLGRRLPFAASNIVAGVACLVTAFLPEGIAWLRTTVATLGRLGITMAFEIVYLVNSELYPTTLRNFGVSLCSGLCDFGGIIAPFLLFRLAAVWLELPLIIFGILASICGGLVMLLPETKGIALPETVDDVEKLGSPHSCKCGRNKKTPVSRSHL

hOCT2 = biological target: T3, hOCT2 (Homo sapiens, UniProt O15244); assay: [3H]MPP+ uptake inhibition assay, HEK293 cells stably expressing hOCT2; format: cell-based
T3 construct: expressed in transfected cells
T3 sequence (O15244 1-555): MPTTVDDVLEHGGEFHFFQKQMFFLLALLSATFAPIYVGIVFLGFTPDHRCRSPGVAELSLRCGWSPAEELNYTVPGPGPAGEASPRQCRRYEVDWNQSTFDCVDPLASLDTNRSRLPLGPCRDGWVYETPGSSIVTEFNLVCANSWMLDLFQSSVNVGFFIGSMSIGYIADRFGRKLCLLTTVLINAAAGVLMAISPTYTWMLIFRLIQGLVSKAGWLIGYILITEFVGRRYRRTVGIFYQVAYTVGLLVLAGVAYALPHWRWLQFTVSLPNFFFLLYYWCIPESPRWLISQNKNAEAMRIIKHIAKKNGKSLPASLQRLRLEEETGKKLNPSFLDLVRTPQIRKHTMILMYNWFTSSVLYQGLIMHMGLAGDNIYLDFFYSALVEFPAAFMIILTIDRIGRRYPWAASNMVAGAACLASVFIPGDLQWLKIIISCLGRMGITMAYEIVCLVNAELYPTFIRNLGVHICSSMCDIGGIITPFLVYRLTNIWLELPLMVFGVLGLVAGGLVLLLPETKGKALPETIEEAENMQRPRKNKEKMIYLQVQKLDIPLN

hOCT1 = biological target: T4, hOCT1 (Homo sapiens, UniProt O15245); assay: [3H]MPP+ uptake inhibition assay, HEK293 cells stably expressing hOCT1; format: cell-based
T4 construct: expressed in transfected cells
T4 sequence (O15245 1-554): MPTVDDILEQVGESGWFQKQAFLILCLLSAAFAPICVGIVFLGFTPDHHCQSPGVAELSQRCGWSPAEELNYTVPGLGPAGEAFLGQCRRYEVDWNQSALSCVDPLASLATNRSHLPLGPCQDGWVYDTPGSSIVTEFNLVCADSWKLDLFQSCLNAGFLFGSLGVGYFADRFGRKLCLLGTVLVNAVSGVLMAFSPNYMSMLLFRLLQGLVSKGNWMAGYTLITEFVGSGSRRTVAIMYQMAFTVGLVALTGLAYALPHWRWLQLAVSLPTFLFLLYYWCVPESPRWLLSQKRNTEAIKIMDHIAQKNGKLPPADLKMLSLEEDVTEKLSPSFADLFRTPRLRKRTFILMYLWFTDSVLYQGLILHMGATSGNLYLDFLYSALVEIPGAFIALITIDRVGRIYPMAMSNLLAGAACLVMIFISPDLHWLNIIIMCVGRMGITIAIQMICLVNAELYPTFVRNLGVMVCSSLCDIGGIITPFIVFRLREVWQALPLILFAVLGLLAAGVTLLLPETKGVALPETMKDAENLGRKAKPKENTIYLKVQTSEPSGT

hOCT3 [2] = biological target: T2, hOCT3; assay: [3H]MPP+ uptake inhibition assay, HEK293 cells stably expressing hOCT3; format: cell-based

## CN1C(=O)CN=C(c2ccccc2)c2cc(Cl)ccc21 [Diazepam, diazepam]
hPMAT
  Effect on substrate uptake by hPMAT (in words): fully inhibited substrate uptake
hOCT3 [1]
  IC50: 2 µM
hOCT2
  Effect on substrate uptake by hOCT2 (in words): fully inhibited substrate uptake
hOCT1
  Effect on substrate uptake by hOCT1 (in words): fully inhibited substrate uptake
hOCT3 [2]
  IC50: 44.5 µM
hOCT3 [2]; [3H]MPP+ uptake, HEK293 hOCT3
  Effect on substrate uptake by hOCT3 (in words): fully inhibited substrate uptake

From publication PMC8657792, “Interaction Profiles of Central Nervous System Active Drugs at Human Organic Cation Transporters 1–3 and Human Plasma Membrane Monoamine Transporter” (International Journal of Molecular Sciences, 2021)
